PubChem BioAssay AID1259254 – NCATS | 2017
Here is one part, drawn at random, of about 59,000 reagents. In the full data, about 1,550 (2.6%) got an active call. 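G2 share is only a proxy for re-replication; each gene was hit by three separate siRNAs, and active genes were retested.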 Reagents against one gene are numbered here. Not all columns of the deposit are shown. No sequences are given here. Not stated in the record: the amount of reagent.

Screen: 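Genome-wide screen for genes that prevent DNA re-replication in cancer cells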 (primary screen)
Cell system: human HCT116 colorectal cancer cells
Reagents: single siRNA against human genes
Timing: 3 days
Read-out: 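Imaged Hoechst DNA stain sorts each cell into a cycle phase by DNA amount; per plate, G2 fraction set to 0% for non-targeting and 100% for GMNN siRNA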
Scale: G2 robust z-score: higher = more G2 cells, more excess DNA replication
Call rule: 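Active siRNAs have a G2 robust z of 5 or more median absolute deviations over the median, which in these data means about 38% or higher of GMNN control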

gene,reagent,G2 robust z-score,Outcome
IL12B (GeneID 3593),1,1.18,inactive
IL12B (GeneID 3593),2,-1.27,inactive
IL12B (GeneID 3593),3,-0.734,inactive
PTPDC1 (GeneID 138639),1,-0.291,inactive
PTPDC1 (GeneID 138639),2,-0.398,inactive
PTPDC1 (GeneID 138639),3,-0.165,inactive
POLD4 (GeneID 57804),1,0.1,inactive
POLD4 (GeneID 57804),2,0.617,inactive
POLD4 (GeneID 57804),3,-0.641,inactive
GPX4 (GeneID 2879),1,-0.306,inactive
GPX4 (GeneID 2879),2,-0.893,inactive
GPX4 (GeneID 2879),3,1.03,inactive
RGS4 (GeneID 5999),1,-0.276,inactive
RGS4 (GeneID 5999),2,0.215,inactive
RGS4 (GeneID 5999),3,2.43,inactive
FAM169BP (GeneID 283777),1,0.941,inactive
FAM169BP (GeneID 283777),2,2.03,inactive
FAM169BP (GeneID 283777),3,0.532,inactive
MRPL51 (GeneID 51258),1,-0.228,inactive
MRPL51 (GeneID 51258),2,-0.512,inactive
MRPL51 (GeneID 51258),3,-1.01,inactive
FOXA1 (GeneID 3169),1,-0.201,inactive
FOXA1 (GeneID 3169),2,1.26,inactive
FOXA1 (GeneID 3169),3,-1.68,inactive
CCDC22 (GeneID 28952),1,0.991,inactive
CCDC22 (GeneID 28952),2,-0.508,inactive
CCDC22 (GeneID 28952),3,0.78,inactive
C1orf87 (GeneID 127795),1,-0.896,inactive
C1orf87 (GeneID 127795),2,2.67,inactive
C1orf87 (GeneID 127795),3,-0.682,inactive

Ordered by “G2 robust z-score” (highest first): 4 of the entries above.
gene,reagent,G2 robust z-score,Outcome
POLD4 (GeneID 57804),2,0.617,inactive
POLD4 (GeneID 57804),1,0.1,inactive
PTPDC1 (GeneID 138639),3,-0.165,inactive
POLD4 (GeneID 57804),3,-0.641,inactive
